Test results from the supplement of paper PMC10849652.
The list shows a part of the results.

By UniProt entry, the sequences of proteins in these tests, tags left out. Where a name states a change or a piece, a line headed by the entry shows the natural chain unless it says otherwise.
UniProt Q8NA72: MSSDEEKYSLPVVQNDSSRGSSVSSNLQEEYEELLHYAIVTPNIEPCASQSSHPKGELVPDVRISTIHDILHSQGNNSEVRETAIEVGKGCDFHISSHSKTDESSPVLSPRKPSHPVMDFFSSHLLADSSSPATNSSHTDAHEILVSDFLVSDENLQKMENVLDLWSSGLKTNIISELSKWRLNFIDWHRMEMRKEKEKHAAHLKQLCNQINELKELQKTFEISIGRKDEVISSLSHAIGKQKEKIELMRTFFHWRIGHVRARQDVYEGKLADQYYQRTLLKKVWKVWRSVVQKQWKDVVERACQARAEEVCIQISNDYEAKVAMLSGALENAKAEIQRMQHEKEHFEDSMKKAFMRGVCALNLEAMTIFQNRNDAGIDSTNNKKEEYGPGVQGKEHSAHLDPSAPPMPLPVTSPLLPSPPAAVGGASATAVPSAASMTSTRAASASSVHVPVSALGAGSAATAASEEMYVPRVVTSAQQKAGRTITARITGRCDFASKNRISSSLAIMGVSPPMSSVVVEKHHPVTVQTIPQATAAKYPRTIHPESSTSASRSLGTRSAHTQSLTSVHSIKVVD
UniProt Q9P215: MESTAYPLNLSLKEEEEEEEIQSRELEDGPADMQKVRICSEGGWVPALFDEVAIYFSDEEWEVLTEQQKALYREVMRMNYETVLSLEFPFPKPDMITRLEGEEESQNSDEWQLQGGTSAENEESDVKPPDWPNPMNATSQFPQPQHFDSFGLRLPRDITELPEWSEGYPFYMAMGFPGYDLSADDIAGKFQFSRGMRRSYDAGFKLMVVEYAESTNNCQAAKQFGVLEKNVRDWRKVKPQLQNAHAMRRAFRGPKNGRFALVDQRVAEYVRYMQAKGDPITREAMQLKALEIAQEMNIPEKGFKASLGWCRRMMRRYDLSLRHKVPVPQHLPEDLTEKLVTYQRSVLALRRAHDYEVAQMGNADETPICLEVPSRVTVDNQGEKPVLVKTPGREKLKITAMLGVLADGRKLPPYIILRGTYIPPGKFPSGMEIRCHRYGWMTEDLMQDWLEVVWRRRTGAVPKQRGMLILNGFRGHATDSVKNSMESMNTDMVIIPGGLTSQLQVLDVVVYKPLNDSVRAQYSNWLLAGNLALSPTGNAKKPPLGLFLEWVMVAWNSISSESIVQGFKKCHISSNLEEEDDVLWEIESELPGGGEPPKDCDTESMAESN
UniProt Q14181: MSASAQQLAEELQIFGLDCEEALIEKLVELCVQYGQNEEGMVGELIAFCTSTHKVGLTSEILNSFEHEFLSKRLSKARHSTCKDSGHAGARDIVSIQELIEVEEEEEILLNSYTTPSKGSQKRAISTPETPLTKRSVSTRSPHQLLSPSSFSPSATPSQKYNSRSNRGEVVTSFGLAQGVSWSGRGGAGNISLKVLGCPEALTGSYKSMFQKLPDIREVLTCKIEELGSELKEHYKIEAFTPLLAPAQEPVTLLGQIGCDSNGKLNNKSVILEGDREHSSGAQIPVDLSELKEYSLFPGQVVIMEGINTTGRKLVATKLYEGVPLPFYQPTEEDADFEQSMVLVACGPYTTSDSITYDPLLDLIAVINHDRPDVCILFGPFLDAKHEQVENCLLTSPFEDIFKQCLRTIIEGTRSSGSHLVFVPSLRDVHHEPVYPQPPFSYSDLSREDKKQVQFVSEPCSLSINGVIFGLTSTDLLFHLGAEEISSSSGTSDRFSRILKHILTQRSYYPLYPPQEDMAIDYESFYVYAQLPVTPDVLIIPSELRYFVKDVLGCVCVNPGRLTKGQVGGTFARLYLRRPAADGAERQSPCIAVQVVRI
UniProt Q9NRF9: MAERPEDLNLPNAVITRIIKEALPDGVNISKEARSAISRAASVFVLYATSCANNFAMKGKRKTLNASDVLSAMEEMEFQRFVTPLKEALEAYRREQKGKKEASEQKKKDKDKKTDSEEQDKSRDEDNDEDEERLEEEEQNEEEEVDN
UniProt P62937, whole entry, looked up: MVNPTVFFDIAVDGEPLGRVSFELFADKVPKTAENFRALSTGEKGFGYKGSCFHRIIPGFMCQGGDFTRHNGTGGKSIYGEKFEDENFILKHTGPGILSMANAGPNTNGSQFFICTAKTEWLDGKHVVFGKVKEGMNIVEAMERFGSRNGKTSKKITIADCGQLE
UniProt Q9H2U2: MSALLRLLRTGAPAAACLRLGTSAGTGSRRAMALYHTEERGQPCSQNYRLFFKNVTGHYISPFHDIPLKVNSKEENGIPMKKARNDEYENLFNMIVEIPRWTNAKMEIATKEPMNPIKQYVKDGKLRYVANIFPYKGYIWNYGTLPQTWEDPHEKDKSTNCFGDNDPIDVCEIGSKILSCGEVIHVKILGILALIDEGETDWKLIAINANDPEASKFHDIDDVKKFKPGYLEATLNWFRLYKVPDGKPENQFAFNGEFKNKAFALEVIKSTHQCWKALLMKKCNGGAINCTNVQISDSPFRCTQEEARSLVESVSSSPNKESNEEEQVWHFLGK
UniProt Q9UHN1: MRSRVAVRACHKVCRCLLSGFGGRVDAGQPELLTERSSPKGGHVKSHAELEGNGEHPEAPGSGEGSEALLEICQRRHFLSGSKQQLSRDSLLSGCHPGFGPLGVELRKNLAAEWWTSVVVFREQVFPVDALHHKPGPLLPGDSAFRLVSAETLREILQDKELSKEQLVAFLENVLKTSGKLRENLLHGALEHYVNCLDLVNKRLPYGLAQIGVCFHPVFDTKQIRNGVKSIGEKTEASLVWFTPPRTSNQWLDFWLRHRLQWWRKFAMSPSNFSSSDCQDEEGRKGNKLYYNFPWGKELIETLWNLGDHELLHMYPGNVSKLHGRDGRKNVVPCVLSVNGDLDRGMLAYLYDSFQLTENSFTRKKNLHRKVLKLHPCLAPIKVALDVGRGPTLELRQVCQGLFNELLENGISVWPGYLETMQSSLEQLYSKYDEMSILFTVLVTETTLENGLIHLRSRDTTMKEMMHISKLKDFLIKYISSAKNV
UniProt Q08752, whole entry, looked up: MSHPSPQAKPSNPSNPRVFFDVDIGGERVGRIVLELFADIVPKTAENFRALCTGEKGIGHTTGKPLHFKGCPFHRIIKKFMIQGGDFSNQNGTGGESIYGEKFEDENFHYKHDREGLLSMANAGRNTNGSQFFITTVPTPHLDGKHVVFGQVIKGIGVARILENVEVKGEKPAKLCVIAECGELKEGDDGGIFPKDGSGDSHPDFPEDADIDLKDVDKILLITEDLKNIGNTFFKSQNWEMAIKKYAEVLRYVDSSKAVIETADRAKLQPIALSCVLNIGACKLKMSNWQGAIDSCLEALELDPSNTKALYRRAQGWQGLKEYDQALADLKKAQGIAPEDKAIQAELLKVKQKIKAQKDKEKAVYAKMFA
UniProt Q07864, whole entry, looked up: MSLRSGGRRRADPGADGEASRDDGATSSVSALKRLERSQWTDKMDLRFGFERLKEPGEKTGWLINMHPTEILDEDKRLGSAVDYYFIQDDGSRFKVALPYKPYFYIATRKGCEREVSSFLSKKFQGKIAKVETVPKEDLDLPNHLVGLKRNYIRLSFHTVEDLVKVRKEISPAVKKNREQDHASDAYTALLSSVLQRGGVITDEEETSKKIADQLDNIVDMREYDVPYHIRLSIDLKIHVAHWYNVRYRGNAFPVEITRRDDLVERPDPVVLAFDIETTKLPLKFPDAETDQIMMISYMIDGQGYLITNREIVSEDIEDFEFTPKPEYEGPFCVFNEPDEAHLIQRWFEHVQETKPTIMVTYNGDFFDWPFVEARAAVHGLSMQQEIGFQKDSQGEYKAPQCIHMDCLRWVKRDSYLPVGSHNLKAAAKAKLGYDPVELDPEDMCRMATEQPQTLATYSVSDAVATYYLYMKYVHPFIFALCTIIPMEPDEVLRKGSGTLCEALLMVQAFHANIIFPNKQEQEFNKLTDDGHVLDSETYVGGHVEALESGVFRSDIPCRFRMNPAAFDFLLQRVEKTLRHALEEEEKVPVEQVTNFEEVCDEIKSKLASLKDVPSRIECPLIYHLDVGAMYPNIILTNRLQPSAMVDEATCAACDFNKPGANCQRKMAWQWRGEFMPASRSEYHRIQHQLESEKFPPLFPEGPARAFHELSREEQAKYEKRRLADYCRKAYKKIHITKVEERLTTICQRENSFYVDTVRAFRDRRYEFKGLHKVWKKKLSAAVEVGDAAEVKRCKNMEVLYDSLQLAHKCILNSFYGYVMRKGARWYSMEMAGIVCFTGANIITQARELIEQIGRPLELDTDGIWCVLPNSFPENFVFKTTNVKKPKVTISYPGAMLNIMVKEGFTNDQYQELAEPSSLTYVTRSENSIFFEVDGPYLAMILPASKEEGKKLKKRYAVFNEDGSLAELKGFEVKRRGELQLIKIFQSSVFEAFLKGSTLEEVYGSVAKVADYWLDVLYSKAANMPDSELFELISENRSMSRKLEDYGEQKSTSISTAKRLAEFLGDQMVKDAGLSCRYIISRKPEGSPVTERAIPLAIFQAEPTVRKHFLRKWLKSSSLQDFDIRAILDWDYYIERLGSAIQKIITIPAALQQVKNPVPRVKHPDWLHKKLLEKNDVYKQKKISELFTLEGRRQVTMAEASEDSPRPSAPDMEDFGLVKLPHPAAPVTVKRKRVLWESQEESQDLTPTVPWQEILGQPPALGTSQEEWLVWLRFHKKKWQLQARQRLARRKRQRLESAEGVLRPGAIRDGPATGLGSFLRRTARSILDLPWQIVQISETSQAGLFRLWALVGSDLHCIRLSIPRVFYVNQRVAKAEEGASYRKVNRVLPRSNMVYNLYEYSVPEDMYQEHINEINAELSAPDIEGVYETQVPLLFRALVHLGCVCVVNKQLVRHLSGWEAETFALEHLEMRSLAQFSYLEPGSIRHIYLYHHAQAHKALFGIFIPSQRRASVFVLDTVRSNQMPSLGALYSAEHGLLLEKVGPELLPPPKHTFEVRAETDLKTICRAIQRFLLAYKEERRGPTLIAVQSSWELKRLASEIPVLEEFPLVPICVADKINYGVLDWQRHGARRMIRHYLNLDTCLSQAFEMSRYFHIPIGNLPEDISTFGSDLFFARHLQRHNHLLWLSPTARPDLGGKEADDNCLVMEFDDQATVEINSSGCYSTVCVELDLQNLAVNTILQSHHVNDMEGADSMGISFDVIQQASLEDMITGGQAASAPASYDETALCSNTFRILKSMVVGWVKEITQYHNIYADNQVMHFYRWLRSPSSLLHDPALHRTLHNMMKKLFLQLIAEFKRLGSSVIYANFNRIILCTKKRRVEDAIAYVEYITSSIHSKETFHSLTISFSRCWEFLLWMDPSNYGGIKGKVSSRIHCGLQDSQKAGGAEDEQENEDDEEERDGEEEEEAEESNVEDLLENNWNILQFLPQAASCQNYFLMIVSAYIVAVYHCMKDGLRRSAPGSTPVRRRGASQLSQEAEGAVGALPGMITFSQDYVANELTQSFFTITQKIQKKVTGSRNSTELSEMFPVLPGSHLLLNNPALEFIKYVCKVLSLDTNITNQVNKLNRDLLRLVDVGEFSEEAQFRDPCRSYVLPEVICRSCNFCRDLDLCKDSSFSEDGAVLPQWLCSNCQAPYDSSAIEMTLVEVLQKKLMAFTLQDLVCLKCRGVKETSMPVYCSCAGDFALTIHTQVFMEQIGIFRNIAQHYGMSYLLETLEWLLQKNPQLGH
UniProt P0DPB6, whole entry, looked up: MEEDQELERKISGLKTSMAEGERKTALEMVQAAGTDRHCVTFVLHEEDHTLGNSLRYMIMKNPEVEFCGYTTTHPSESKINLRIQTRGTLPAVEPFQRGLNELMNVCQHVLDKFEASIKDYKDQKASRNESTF
UniProt P54278: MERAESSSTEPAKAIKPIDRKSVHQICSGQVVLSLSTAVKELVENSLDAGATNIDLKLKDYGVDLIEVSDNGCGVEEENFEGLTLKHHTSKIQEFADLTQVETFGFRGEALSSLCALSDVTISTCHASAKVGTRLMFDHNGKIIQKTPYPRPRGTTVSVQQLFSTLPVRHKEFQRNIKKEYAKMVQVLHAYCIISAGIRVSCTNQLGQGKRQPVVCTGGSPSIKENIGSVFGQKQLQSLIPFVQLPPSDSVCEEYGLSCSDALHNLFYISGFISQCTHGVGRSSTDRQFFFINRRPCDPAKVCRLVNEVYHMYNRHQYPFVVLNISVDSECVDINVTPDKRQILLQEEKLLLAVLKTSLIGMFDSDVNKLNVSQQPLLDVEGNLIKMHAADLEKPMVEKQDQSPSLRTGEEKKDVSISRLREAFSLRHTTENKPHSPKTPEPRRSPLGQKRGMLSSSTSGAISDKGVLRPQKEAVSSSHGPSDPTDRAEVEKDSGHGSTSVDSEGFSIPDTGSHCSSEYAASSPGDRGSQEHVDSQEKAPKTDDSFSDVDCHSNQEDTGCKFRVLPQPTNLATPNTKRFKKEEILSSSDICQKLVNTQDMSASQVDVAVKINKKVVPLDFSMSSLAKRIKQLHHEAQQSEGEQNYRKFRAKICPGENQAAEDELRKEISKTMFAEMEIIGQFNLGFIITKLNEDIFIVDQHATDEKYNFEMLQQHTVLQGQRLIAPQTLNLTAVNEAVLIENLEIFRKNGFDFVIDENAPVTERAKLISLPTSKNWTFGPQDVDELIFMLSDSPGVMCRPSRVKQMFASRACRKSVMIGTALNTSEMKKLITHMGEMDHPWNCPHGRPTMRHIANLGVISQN

Legend:
Experiment in all cases: log2 fold change, soluble protein after heating vs DMSO (PISA); higher = thermal stabilisation; K562 lysate, 10 uM; active = over 0.2 and 3.5 SD of the protein, either way, in both replicates (recomputed)
ibrutinib = compound: C=CC(=O)N1CCC[C@@H](n2nc(-c3ccc(Oc4ccccc4)cc3)c3c(N)ncnc32)C1 [ibrutinib]
Method in brief: (§1)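 Thermal stability, expressed as log-two fold change relative to solvent controls, is given from duplicates. Crude K562 extract in PBS pH 7.4 with 1 mM MgCl2, at 1 mg/mL protein, was treated with 10 μM compound for 30 min and heated in aliquots for 3 min across 48°C-58°C. After pooling, adjustment to 0.5% NP-40 at 4°C and centrifugation at 21,000xg for 90 min, supernatant protein was measured by TMTpro 16plex LC-MS/MS with channel sums equalised.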

[1] = compound: CC(=O)c1cnc2ccc(-c3cc(Cl)c(O)c(Cl)c3)nc2c1N[C@H]1CC[C@H](CN(C)C)CC1
Method in brief: as §1

ralimetinib = compound: CC(C)(C)Cn1c(N)nc2ccc(-c3[nH]c(C(C)(C)C)nc3-c3ccc(F)cc3)nc21 [ralimetinib]
Method in brief: as §1

[2] = compound: CC(C)(O)CC(=O)NCCn1ccc2ncnc(Nc3ccc(Oc4cccc(C(F)(F)F)c4)c(Cl)c3)c21
Method in brief: as §1

[3] = compound: CC(C)C1=C2N=C(C=C(N2N=C1)NCC3=CC=CC=C3)NCCCCCCN
Method in brief: as §1

[4] = compound: CC1=C(C(CC(=O)N1)C2=CC=C(C=C2)C(F)(F)F)C(=O)NC3=C(C=C4C(=C3)C=NN4)F
Method in brief: as §1

[5] = compound: CC1=C(C2=C(C=C1)C(=O)C3=CC=CC=C3N2CCCN)C
Method in brief: as §1

[6] = compound: CC1=C(C=C(C=C1)NC(=O)C2=CC(=CC=C2)C(C)(C)C#N)NC3=CC4=C(C=C3)N=CN(C4=O)C
Method in brief: as §1

[7] = compound: CC1=C(C=C(C=C1)NC(=O)C2=CC(=CC=C2)N(C)C)NC(=O)C3=CC=C(C=C3)O
Method in brief: as §1

[8] = compound: CC1=CC=C(C=C1)SC2=C3C=C(SC3=CN=C2)C(=O)N
Method in brief: as §1

Measured: log2 fold change

PML (UniProt P29590)
inactive: ibrutinib 0.011 | [1] -0.002 | ralimetinib -0.001 | [2] -0.019 | [3] 0.002 | [4] -0.012 | [5] 0.023 | [6] 0.014 | [7] 0.004 | [8] -0.006

POLR1C (UniProt O15160)
inactive: ibrutinib -0.041 | [1] -0.013 | ralimetinib 0.012 | [2] -0.018 | [3] 0.029 | [4] 0.003 | [5] 0.017 | [6] 0.024 | [7] 0.012 | [8] 0.017

POLR2I (UniProt P36954)
inactive: ibrutinib 0.031 | [1] 0.038 | ralimetinib -0.023 | [2] 0.03 | [3] -0.172 | [4] -0.105 | [5] 0.085 | [6] 0.103 | [7] -0.145 | [8] 0.047

PNPT1 (UniProt Q8TCS8)
inactive: ibrutinib 0.017 | [1] 0.005 | ralimetinib -0.004 | [2] -0.017 | [3] -0.02 | [4] -0.015 | [5] 0.011 | [6] 0.038 | [7] -0.007 | [8] -0.012

POC5 (UniProt Q8NA72)
inactive: ibrutinib 0.013 | [1] -0.063 | ralimetinib 0.062 | [2] -0.029 | [3] 0.101 | [4] 0.015 | [5] 0.026 | [6] -0.015 | [7] 0 | [8] -0.02

POGK (UniProt Q9P215)
inactive: ibrutinib 0.051 | [1] -0.012 | ralimetinib 0.04 | [2] -0.026 | [3] -0.012 | [4] 0.018 | [5] 0.04 | [6] 0.01 | [7] -0.047 | [8] 0.027

Quoted at random: two entries already listed, in no set order.
PNPT1 (UniProt Q8TCS8)
inactive: ibrutinib 0.017 | [1] 0.005 | ralimetinib -0.004 | [2] -0.017 | [3] -0.02 | [4] -0.015 | [5] 0.011 | [6] 0.038 | [7] -0.007 | [8] -0.012

POLR1C (UniProt O15160)
inactive: ibrutinib -0.041 | [1] -0.013 | ralimetinib 0.012 | [2] -0.018 | [3] 0.029 | [4] 0.003 | [5] 0.017 | [6] 0.024 | [7] 0.012 | [8] 0.017

Later entries:

PLEKHO2 (UniProt Q8TD55)
inactive: ibrutinib 0.358 | [1] -0.102 | ralimetinib -0.11 | [2] 0.108 | [3] 0.006 | [4] 0.01 | [5] 0.069 | [6] 0.048 | [7] 0.252 | [8] -0.129

POLR3C (UniProt Q9BUI4)
inactive: ibrutinib 0 | [1] -0.001 | ralimetinib 0.041 | [2] -0.002 | [3] 0.003 | [4] 0.015 | [5] -0.005 | [6] 0.011 | [7] -0.004 | [8] -0.011

POGLUT3 (UniProt Q7Z4H8)
inactive: ibrutinib 0.002 | [1] 0.023 | ralimetinib 0.036 | [2] -0.013 | [3] 0.003 | [4] -0.01 | [5] 0.002 | [6] -0.055 | [7] -0.021 | [8] 0.002

PLOD1 (UniProt Q02809)
inactive: ibrutinib 0.014 | [1] 0.007 | ralimetinib 0.035 | [2] 0.022 | [3] -0.005 | [4] 0.023 | [5] 0.009 | [6] 0.014 | [7] 0.008 | [8] 0.03

POLR2M (UniProt P0CAP2)
inactive: ibrutinib -0.011 | [1] 0.014 | ralimetinib -0.018 | [2] -0.042 | [3] -0.001 | [4] -0.014 | [5] -0.046 | [6] -0.055 | [7] -0.008 | [8] 0.007

POLA2 (UniProt Q14181)
inactive: ibrutinib 0.037 | [1] -0.001 | ralimetinib 0.011 | [2] -0.005 | [3] -0.003 | [4] -0.048 | [5] 0.008 | [6] 0.013 | [7] -0.008 | [8] -0.011

POFUT1 (UniProt Q9H488)
inactive: ibrutinib 0.012 | [1] 0.025 | ralimetinib 0.001 | [2] -0.013 | [3] -0.004 | [4] -0.007 | [5] 0.043 | [6] -0.032 | [7] -0.006 | [8] 0.018

POLR2L (UniProt P62875)
inactive: ibrutinib -0.005 | [1] 0.012 | ralimetinib -0.035 | [2] -0.002 | [3] -0.083 | [4] 0.022 | [5] 0.036 | [6] -0.055 | [7] -0.095 | [8] -0.011

POLE3 (UniProt Q9NRF9)
inactive: ibrutinib -0.03 | [1] 0.017 | ralimetinib -0.048 | [2] -0.014 | [3] 0.012 | [4] -0.028 | [5] 0.008 | [6] -0.065 | [7] -0.026 | [8] 0.003

PPIA (UniProt P62937)
inactive: ibrutinib 0.039 | [1] -0.007 | ralimetinib -0.005 | [2] 0.02 | [3] -0.017 | [4] -0.02 | [5] 0.005 | [6] -0.033 | [7] 0.016 | [8] 0.002

PNPO (UniProt Q9NVS9)
inactive: ibrutinib 0.056 | [1] -0.004 | ralimetinib -0.033 | [2] 0.019 | [3] 0.022 | [4] 0.034 | [5] 0.081 | [6] -0.025 | [7] -0.034 | [8] -0.003

PPA2 (UniProt Q9H2U2)
inactive: ibrutinib 0.011 | [1] 0.007 | ralimetinib -0.009 | [2] 0.003 | [3] 0.009 | [4] -0.013 | [5] 0.016 | [6] 0.004 | [7] -0.012 | [8] 0.018

POLG2 (UniProt Q9UHN1)
inactive: ibrutinib 0.033 | [1] -0.009 | ralimetinib 0.048 | [2] 0.007 | [3] -0.01 | [4] 0.017 | [5] -0.052 | [6] 0.01 | [7] -0.017 | [8] -0.058

POLB (UniProt P06746)
inactive: ibrutinib -0.011 | [1] -0.003 | ralimetinib 0.068 | [2] -0.042 | [3] 0.083 | [4] 0.017 | [5] -0.006 | [6] -0.027 | [7] -0.034 | [8] -0.003

POLR2E (UniProt P19388)
inactive: ibrutinib -0.03 | [1] -0.007 | ralimetinib -0.045 | [2] -0.033 | [3] 0.032 | [4] 0.008 | [5] -0.013 | [6] -0.003 | [7] 0.001 | [8] -0.006

PPID (UniProt Q08752)
inactive: ibrutinib -0.023 | [1] 0.005 | ralimetinib -0.005 | [2] 0.019 | [3] 0.001 | [4] -0.02 | [5] 0.021 | [6] -0.011 | [7] 0.014 | [8] 0.005

PLIN2 (UniProt Q99541)
inactive: ibrutinib 0.015 | [1] 0.031 | ralimetinib -0.014 | [2] -0.022 | [3] -0.001 | [4] 0.069 | [5] -0.007 | [6] 0.016 | [7] 0.025 | [8] 0

POTEKP (UniProt Q9BYX7)
inactive: ibrutinib 0.177 | [1] 1.04 | ralimetinib 0.212 | [2] -0.143 | [3] -0.19 | [4] -0.08 | [5] -0.247 | [6] 1.79 | [7] -0.322 | [8] -0.077

POLE (UniProt Q07864)
inactive: ibrutinib 0.007 | [1] 0.034 | ralimetinib 0.022 | [2] -0.055 | [3] -0.001 | [4] 0.03 | [5] -0.045 | [6] -0.025 | [7] 0.02 | [8] 0.124

POLR1D (UniProt P0DPB6)
inactive: ibrutinib 0.027 | [1] 0.031 | ralimetinib 0.088 | [2] -0.015 | [3] 0.019 | [4] -0.031 | [5] -0.012 | [6] 0.034 | [7] 0.04 | [8] 0.011

POTEI (UniProt P0CG38)
inactive: ibrutinib 0.004 | [1] -0.017 | ralimetinib 0.015 | [2] -0.019 | [3] 0.045 | [4] -0.019 | [5] -0.003 | [6] 0.045 | [7] -0.027 | [8] 0

PMS2 (UniProt P54278)
inactive: ibrutinib 0.027 | [1] 0.032 | ralimetinib 0.046 | [2] -0.047 | [3] 0.069 | [4] -0.038 | [5] -0.049 | [6] -0.019 | [7] -0.004 | [8] 0.002

PMPCB (UniProt O75439)
inactive: ibrutinib 0.025 | [1] -0.005 | ralimetinib 0.012 | [2] -0.029 | [3] 0 | [4] -0.026 | [5] 0.021 | [6] 0.001 | [7] 0.012 | [8] 0.013

POLG (UniProt P54098)
inactive: ibrutinib 0.08 | [1] 0.153 | ralimetinib 0.032 | [2] -0.042 | [3] 0.012 | [4] -0.005 | [5] -0.043 | [6] 0.141 | [7] -0.032 | [8] -0.061
